# Primary screen of a compound library

By UniProt entry, the sequences of proteins in these tests, tags left out. Residues count along the entry.
UniProt Q4DA54, 1-478: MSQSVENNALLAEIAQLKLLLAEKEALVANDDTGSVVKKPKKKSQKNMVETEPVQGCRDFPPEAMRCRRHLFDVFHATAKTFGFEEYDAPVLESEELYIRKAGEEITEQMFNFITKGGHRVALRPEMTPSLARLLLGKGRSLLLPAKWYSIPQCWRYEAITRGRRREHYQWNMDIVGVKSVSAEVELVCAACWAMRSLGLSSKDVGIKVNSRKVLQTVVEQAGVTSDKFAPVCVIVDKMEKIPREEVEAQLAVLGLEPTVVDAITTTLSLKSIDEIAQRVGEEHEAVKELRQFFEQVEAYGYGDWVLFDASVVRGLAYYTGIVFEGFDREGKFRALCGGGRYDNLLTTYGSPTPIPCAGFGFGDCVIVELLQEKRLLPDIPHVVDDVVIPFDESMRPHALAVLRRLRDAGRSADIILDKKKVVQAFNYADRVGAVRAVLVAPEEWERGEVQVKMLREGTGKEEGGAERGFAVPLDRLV
UniProt A4I591, 1-473: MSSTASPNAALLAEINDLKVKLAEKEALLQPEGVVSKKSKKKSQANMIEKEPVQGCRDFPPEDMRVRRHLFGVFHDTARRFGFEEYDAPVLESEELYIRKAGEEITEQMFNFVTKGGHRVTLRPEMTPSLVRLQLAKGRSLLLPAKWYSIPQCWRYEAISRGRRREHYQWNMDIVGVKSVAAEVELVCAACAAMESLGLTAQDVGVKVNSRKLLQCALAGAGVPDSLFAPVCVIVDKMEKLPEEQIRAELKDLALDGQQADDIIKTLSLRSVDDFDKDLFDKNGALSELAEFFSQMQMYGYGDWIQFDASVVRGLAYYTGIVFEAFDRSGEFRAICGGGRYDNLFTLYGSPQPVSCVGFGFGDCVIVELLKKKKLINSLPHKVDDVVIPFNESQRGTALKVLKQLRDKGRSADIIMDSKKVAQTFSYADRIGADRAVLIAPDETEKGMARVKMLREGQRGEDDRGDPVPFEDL
UniProt P9WPC5, whole entry: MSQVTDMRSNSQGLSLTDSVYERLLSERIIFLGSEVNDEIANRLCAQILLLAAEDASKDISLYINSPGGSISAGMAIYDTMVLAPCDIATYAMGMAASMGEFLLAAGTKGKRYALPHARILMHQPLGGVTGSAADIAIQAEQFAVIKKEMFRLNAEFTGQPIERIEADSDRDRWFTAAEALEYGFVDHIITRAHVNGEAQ
UniProt P9WPC3, whole entry partner: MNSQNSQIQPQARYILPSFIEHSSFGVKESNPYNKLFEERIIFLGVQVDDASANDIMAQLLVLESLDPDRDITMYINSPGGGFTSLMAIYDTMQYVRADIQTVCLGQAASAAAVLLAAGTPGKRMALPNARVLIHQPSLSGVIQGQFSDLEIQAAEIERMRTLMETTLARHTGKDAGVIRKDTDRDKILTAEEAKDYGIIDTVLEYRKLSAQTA

The values are deposited in ChEMBL (CHEMBL3988442, “University of Dundee, Small-Polar-MMV Screening Library” (2021)).

Values are the deposited “Percent Effect”, in %.
The controls that fix the scale are not given in the record; negative values are as filed.
Compounds were drawn at random from those tested, without regard to their results.
Two or more numbers in one place are separate tests of the same structure; such repeats can differ widely.
A dash means the value is not listed here; it may have been measured.

Toxoplasma: 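Assay of Toxoplasma gondii numbers, read through their beta-galactosidase reporter with a colour substrate. Tested at 10 µM. The record gives no direction; the compounds picked for IC50 retests had high values, so higher reads as fewer parasites. Of about 67,000 compounds tested this way, about 260 (0.38%) reached 50% or more in at least one test.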
Leishmania in macrophages: 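Cell assay of Leishmania donovani living inside macrophages; the read-out is not stated. Tested at 30 µM. The record gives no direction; compounds that gave an IC50 in retests scored well above the rest, so higher reads as stronger inhibition. Of about 69,000 compounds tested this way, about 1,000 (1.5%) reached 50% or more in at least one test.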
TcHisRS: 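Histidine-tRNA ligase, Trypanosoma cruzi CL Brener (UniProt Q4DA54). Enzyme assay of histidyl-tRNA synthetase; the read-out is not stated. Tested at 30 µM. Direction is inferred from retests: higher values go with stronger inhibition. Size under these conditions: about 69,000 compounds, about 31 of them at 50% or above in at least one test.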
LiHisRS: 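Enzyme assay of histidyl-tRNA synthetase; the read-out is not stated. Target: Histidine-tRNA ligase, Leishmania infantum (UniProt A4I591). Compounds at 30 µM. The record gives no direction; compounds that gave an IC50 in retests scored well above the rest, so higher reads as stronger inhibition. The assay is labelled LdHisRS but filed under L. infantum. Of about 69,000 compounds tested this way, about 410 (0.6%) reached 50% or more in at least one test.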
ClpP1P2: 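ClpP1P2, Mycobacterium tuberculosis (UniProt P9WPC5 and UniProt P9WPC3). Protease assay of ClpP1P2, read by the AMC dye that it sets free. Concentration: 50 µM. Direction is inferred from only a few compounds that gave an IC50; most scored high, so higher reads as stronger inhibition. Most other retested compounds had strongly negative values. About 69,000 compounds were tested under these conditions; 0.015% (about 10) showed 50% or more at least once.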
T. brucei: 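Whole-parasite assay of Trypanosoma brucei over 72 hours; the read-out is not stated. Tested at 30 µM. The record gives no direction; compounds that gave an IC50 in retests scored well above the rest, so higher reads as stronger inhibition. Values scatter widely below zero; nearly all retest evidence comes from the higher of the two concentrations used. Size under these conditions: about 64,000 compounds, about 940 of them at 50% or above in at least one test.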

| # | Compound | Toxoplasma | Leishmania in macrophages | TcHisRS | LiHisRS | ClpP1P2 | T. brucei |
|---|---|---|---|---|---|---|---|
| 1 | `[H][C@@]12CCN(Cc3cc(C)on3)C[C@@]1([H])O[C@@H](c1nc(C3CC3)cs1)C2` | -4.168% | 42.15% | - | - | - | -42.99% |
| 2 | `[H][C@]12CC[C@@]3(N=C(C)N(C)C3=O)[C@@]1([H])CN(Cc1ccccc1F)C2` | -2.707% | 3.306% | - | - | - | 23.4% |
| 3 | `COC(=O)CCN1CCCC1c1ccccc1Cl` (stereo not shown) | 0.5507% | 19.38% | 4.564% | 14.56% | -0.962% | -8.706% |
| 4 | `O=c1ccc2c(n1CC1CC1)CCC(NS(=O)(=O)C1CC1)C2` (stereo not shown) | -2.682% | -8.331% | 0% | -1% | 8.38% | -15.81% |
| 5 | `Cc1nc(C)c(C(=O)N2CCCN(Cc3cnn(C)c3)CC2)s1` | -0.4632% | 11.54% | -3.361% | 3.306% | 11.95% | 1.92% |
| 6 | `NC(=O)c1cn[nH]c1C1CCCN1C(=O)c1cnccn1` (stereo not shown) | - | 17.24% | 5.385% | 14.08% | 0.4647% | - |
| 7 | `CCOc1ccc(-c2ccnc(CC)n2)cc1C(=O)O` | -3.347% | 13.74% | 2.5% | 21.15% | -8.483% | 9.093% |
| 8 | `Cc1nc(CN2CCC(c3cc(N4CCCC4)ncn3)CC2)cs1` | -9.58% | 15.39% | -0.5291% | 4% | -5.439% | -0.5514% |
| 9 | `Cc1cnn(CCNC(C)c2nnc(-c3cccc(Cl)c3)o2)c1` (stereo not shown) | -0.769% | -31.59% | -0.5405% | 6.838% | -16.18% | -9.065% |
| 10 | `N#CC1(C(=O)NCC2CCC3(CCNCC3)O2)CC1` (stereo not shown) | - | - | 4.854% | 23.3% | 8.905% | - |
| 11 | `O=C(COc1ccc(F)cc1)N1CCCSCC1CN1CCOCC1` (stereo not shown) | -2.188% | -22.07% and 3.37% | 2.062% | -1.739% | -6.958% | -7.649% |
| 12 | `CCCn1ccnc1CN1CCCC1c1ccccn1` (stereo not shown) | -5.387% | 7.371% | -0.9662% | 14.17% | -41.94% | - |
| 13 | `CCCc1noc(C2CCN(S(=O)(=O)c3cccs3)CC2)n1` | 2.801% | 12.47% | 0% | 16.07% | -2.789% | -14.84% |
| 14 | `[H][C@]12CC[C@]([H])(CN(Cc3cccnc3N)C1)N(CC1CC1)C2=O` | -7.705% | -3.537% | - | - | - | -23.46% |
| 15 | `Cc1nc(NCc2ccc(F)cc2)cc(C2CCCN2)n1` (stereo not shown) | - | - | 6.061% | 2.817% | -8.703% | - |
| 16 | `COc1ccc(OC)c(C2C3=C(COC3=O)Nc3[nH]nc(C)c32)c1` (stereo not shown) | 0.3586% | -8.191% | -133.9% | 11.65% | 9.923% | 27.85% |
| 17 | `CCS(=O)(=O)N1CCC2(CCN(Cc3ccc(C)o3)C2)C1` (stereo not shown) | -3.744% | 33.35% | 10.2% | 11% | 13.59% | -22.11% |
| 18 | `CN(C)C(=O)C1OC2(CCN(c3ncc(F)cn3)CC2)c2ccccc21.O=C(O)C(F)(F)F` (stereo not shown) | 1.151% | 1.262% | - | - | - | -1.93% |
| 19 | `Cc1nc(C)c(CC(=O)NCc2ccc(F)cc2)s1` | -22.08% | -20.42% | 6.186% | 14.29% | -4.176% | -4.416% |
| 20 | `COCC(c1cccc(C(F)(F)F)c1)N(C)C(=O)c1cc(C)no1` (stereo not shown) | -10.16% | -3.394% | 1.901% | 28% | 23.8% | -25.24% |
| 21 | `CCn1nc(C(C)C)cc1C(=O)NCCCOC` | 4.711% | 24.5% | 1.626% | 20.19% | 0.3446% | -19.63% |
| 22 | `Cc1ccc2c(c1)SCC(=O)N2CC(=O)N1CCCC1c1cc(C)no1` (stereo not shown) | -1.606% | 9.351% | -2.128% | 28.12% | -10.38% | -45.94% |
| 23 | `Cc1nn(C)c(Cl)c1C1CCCN1Cc1ccc(C(N)=O)cc1` (stereo not shown) | 3.218% | 21.46% | 6.286% | 13.56% | -19.94% | - |
| 24 | `O=C(NC1CC1)N1CCOC2(CCCN(c3cccc(F)c3)C2)C1` (stereo not shown) | 14.84% | 10.53% | 10.16% | 14.53% | 8.895% | - |
| 25 | `O=C(NC1CCCN(CCc2ccccc2)C1)c1cnccn1` (stereo not shown) | 15.83% | 24.9% | 4.523% | 15.73% | 3.2% | -2.147% |
| 26 | `CC(NC(=O)C1=NN(C)C(=O)CC1)c1ccc(F)cc1F` (stereo not shown) | -2.189% | -0.3222% | -3.306% | 13.46% | 5.046% | -25.27% |
| 27 | `CCOc1cccnc1C(=O)N1CCC(c2ccccc2OC)C1` (stereo not shown) | 4.866% | 14.9% | 12.07% | 7.895% | -0.2491% | 10.74% |
| 28 | `Cl.[H][C@@]12OCCC[C@]1([H])NC[C@@H]2NC(=O)c1ccno1` | 13.09% | 38.86% | - | - | - | 1.891% |
| 29 | `CCNC(=O)[C@@H]1C[C@H](N)CN1C(=O)c1cccc(CCC(C)(C)O)c1` | 1.633% | -10.39% | 8.081% | 20.21% | 0.1344% | -32.94% |
| 30 | `[H][C@@]12CCN(C(=O)c3ccccc3)C[C@@]1([H])O[C@H](c1nccs1)C2` | -3.068% | -3.413% | - | - | - | -23.85% |
| 31 | `Cn1ccnc1CN1CCC2(CC1)CCN(c1cncnc1)C2=O.O=C(O)C(F)(F)F` | -1.113% | -2.896% | - | - | - | -16.35% |
| 32 | `O=C(c1cc(C2CC2)[nH]n1)N1CCN(Cc2ccncc2)CC1` | -14.12% | 29.43% | 3.488% | 10.71% | -4.425% | -10.53% |
| 33 | `COCC1(C(=O)N[C@H]2CN(c3ccnc(C)c3)C[C@@H]2C2CC2)CCC1` | 8.339% | 21.13% | 1.587% | 9.333% | 1.601% | -3.919% |
| 34 | `CCN(Cc1nc2c(cnn2C)c(=O)[nH]1)c1cc(C)ccc1C` | 4.189% | -11.53% | 4.04% | 4.762% | 7.733% | -38.26% |
| 35 | `Cc1cc(-c2cnn(CCNC(=O)C3CCCO3)c2C2CC2)on1` (stereo not shown) | 3.652% | 3.567% | 2.703% | 16.67% | 3.906% | 19.57% |
| 36 | `CO[C@H]1CCN(Cc2cccc(C)n2)[C@@H]2CN(Cc3cccnc3)C[C@H]12` | - | - | 4.132% | 11.43% | -1.803% | - |
| 37 | `[H][C@@]12COC[C@]1(c1nnc(C)o1)CN(Cc1cc(C)on1)C2` | -5.16% | 7.846% | - | - | - | -23.28% |
| 38 | `O=C(O)C(F)(F)F.O=S(=O)(C1CC1)N1CCC2(CCN(Cc3nccs3)CC2)CC1` | 10.22% | 24.59% | - | - | - | 0.7401% |
| 39 | `CCN(CC)c1ccc(CNC(=O)c2cnccn2)cn1` | -4.332% | 24.69% | -8.621% | 16.67% | 13.45% | -3.94% |
| 40 | `Cc1ccc(C(=O)N2CCCCC2CN(C)C)cc1` (stereo not shown) | -0.0833% | 1.283% | 9% | 20.41% | -8.439% | -10.18% |
| 41 | `Cc1csc(C2CCCN(C(=O)c3cnc[nH]3)C2)n1` (stereo not shown) | 8.099% | -2.568% | 3.759% | 19.05% | 1.382% | -1.622% |
| 42 | `O=C(c1ccco1)N1C[C@H]2CCCN(Cc3ccoc3)[C@H]2C1` | - | - | 10.74% | 16.36% | -4.237% | - |
| 43 | `O=C(c1ccc(Cl)c(Cl)c1)N1CCCC(n2cncn2)C1` (stereo not shown) | 2.693% | 5.705% | 1.149% | 6.154% | -1.471% | 2.921% |
| 44 | `N#CCc1ccc(OCC(=O)NS(=O)(=O)c2ccc(Br)s2)cc1` | 5.841% | -11.48% | 2.02% | -9.524% | -0.4593% | -27.9% |
| 45 | `CNC(=O)C(C)(C)N1CCC[C@H]1C(=O)NC1CC1` | 14.49% | 0.9904% | -2.97% | 19.44% | -3.583% | -0.8501% |
| 46 | `CC(=O)N1C[C@@H]2C(=O)N(C)C3(CCN(C(=O)C(C)C)CC3)[C@@H]2C1` | - | - | 7.767% | 17.48% | -12.04% | - |
| 47 | `COc1ccc(Oc2ncccc2C(N)=O)cc1CN1CCCC1` | -22.16% | -42.91% | 5.797% | 15.83% | -24.32% | - |
| 48 | `CN(C)CCN1CCO[C@@H]2CCN(C(=O)c3cccn3C)CC[C@H]21` | - | - | 3.333% | 52.83% | 12.52% | - |
| 49 | `c1ccc(CN2CCc3nnc(COc4ccccn4)n3CC2)nc1` | - | - | 2.479% | 16.36% | 8.174% | - |
| 50 | `Cc1noc(CCCC(=O)NC(C)c2cccnc2)n1` (stereo not shown) | -25.69% | 3.431% | 3.422% | 20% | 10.39% | -28.54% |
| 51 | `CC(C)(C)n1ncc2c1CCCC2NCc1ccc2c(c1)CCO2` (stereo not shown) | 6.212% | 12.71% | 6.14% | 3.571% | -13.02% | -14.76% |
| 52 | `CN(CCc1nccs1)C(=O)CC1(O)CCCCC1` | 25.74% | 14.86% | 3.982% | 11.5% | -8.121% | 3.511% |
| 53 | `Cc1cc(NC(C)c2nnn[nH]2)n2nc(C)c(C)c2n1` (stereo not shown) | 14.32% | 15.99% | 6.087% | 6.667% | -7.099% | 85.64% |

The first 3 entries again:

Compound	Toxoplasma	Leishmania in macrophages	TcHisRS	LiHisRS	ClpP1P2	T. brucei
[H][C@@]12CCN(Cc3cc(C)on3)C[C@@]1([H])O[C@@H](c1nc(C3CC3)cs1)C2	-4.168%	42.15%	-	-	-	-42.99%
[H][C@]12CC[C@@]3(N=C(C)N(C)C3=O)[C@@]1([H])CN(Cc1ccccc1F)C2	-2.707%	3.306%	-	-	-	23.4%
COC(=O)CCN1CCCC1c1ccccc1Cl (stereo not shown)	0.5507%	19.38%	4.564%	14.56%	-0.962%	-8.706%